{"source": "patent US20210315881A1", "about": "“COMBINATION OF HISTONE DEACETYLASE INHIBITOR AND PROTEIN KINASE INHIBITOR AND PHARMACEUTICAL USE THEREOF” (SHENZHEN CHIPSCREEN BIOSCIENCES CO., LTD., priority 2018, published 2021)", "key": {"Bel-7404 cells [1]": {"system": "Bel-7404 cells", "experiment": "Cell cycle analysis by flow cytometry with PI staining", "assay_type": "cell-based, human", "conditions": "48 hours", "procedure": "(§1) Human hepatoma cell line Bel-7402 and Bel-7404 were purchased from the Cell Resource Center of Shanghai Institutes for Biological Sciences, CAS, and routinely cultured at 37° C. under 5% CO2, in a culture medium of RPMI-1640 (Gibco) containing 10% fetal bovine serum (FBS; Gibco) and 1% Penicillin-Streptomycin (HyClone). Trypsin was purchased from Gibco. Crystal violet, RNase A (10 mg/mL) solution, propidium iodide (PI), Triton X-100 were purchased from Sangon Biotech (Shanghai) Co., Ltd. MTS cell viability assay kits, Caspase-Glo 3/7 assay kits were purchased from Promega. Nude mice were purchased from Guangdong Medical Laboratory Animal Center.\nThe cells of Bel-7404 at the log phase stage were digested by trypsin, collected and counted. The cells were seeded in a 6-well plate at the density of 10^6 cells per well in a total of 18 wells. […] The fixed samples were allowed to stand at 4° C. for more than 12 hours, and analyzed by the flow cytometry assay within 1 week.\nPBS, 10 mg/mL PI stock solution, 10 mg/mL RNase A solution and Triton X-100 were mixed at a ratio of 1000:5:2:1 to form a working dye solution. […] The filtrate was analyzed for cell cycles by the flow cytometry assay (each sample counted 20,000 cells)."}, "Bel-7404 cells [2]": {"system": "Bel-7404 cells", "experiment": "Cell apoptosis by Caspase 3/7 assay", "assay_type": "cell-based, human", "conditions": "Bel-7404, 0.5 μM Chidamide alone, 48 hours", "procedure": "as §1\nThe cells of Bel-7404 at the log phase stage were digested by trypsin, collected and counted. The cells were seeded in a 96-well plate at density of 2000 cells per well in a total of 18 wells. […]\nThe 96-well plates containing the treated cells were taken out of the incubator and equilibrated to room temperature. […] The […] value of each sample was measured by a luminometer. The […] value can directly reflect the proportion of apoptotic cells in each well, and can be used to calculate and compare the cell viability of the different groups."}, "Bel-7404 cell xenograft": {"system": "Bel-7404 cell xenograft", "experiment": "Tumor cell xenograft model in nude mice", "assay_type": "in vivo", "conditions": "20 mg/kg Chidamide, intragastrically once a day, 33 days, vs solvent control", "procedure": "The cells of Bel-7404 were cultured to expend to a large amount, and maintained at a log phase state. After the number of the cells reached the required amount, they were digested with trypsin, collected, washed twice with a large amount of PBS to remove the trypsin and serum, and centrifuged at 800 rpm for 10 min at room temperature and the cell supernatants were discarded. The cells were resuspended in the FBS-free RPIM-1640 culture medium, and adjusted the cell density to 10^7/300 μL.\nUnder aseptic conditions, each nude mouse was injected subcutaneously on the back with 300 μL/injection, one injection per nude mouse. A 1 mL disposable medical syringe for injection was used, and the injection site and direction were roughly same for each nude mouse.\nOne day after cell implanting, the nude mice were randomly divided into four groups (namely, solvent control group, Chiauranib 2.5 mg/kg group, Chidamide 20 mg/kg group and the combined administration group), housed in separate cages after marked, administered in groups and tumor formation of each mouse was observed every day. […] Every 2 days, the longest diameter of the tumor (length) and the widest diameter (width) perpendicular to the longest diameter were measured with a vernier caliper. The tumor volume was calculated by the formula TS=length×(width)^2/2 and recorded. […]"}, "Bel-7404 cells [3]": {"system": "Bel-7404 cells", "experiment": "MTS cell viability assay", "assay_type": "cell-based, human", "conditions": "Bel-7404, monotreatment, 120 hours, dose-dependent", "procedure": "as §1\n(§2) The Bel-7402, Bel-7404 cell lines were digested by trypsin, collected and counted, and then seeded in a 96-well cell culture plate at the density of 3,000 cells/180 μL in each well, and cultured at 37° C. under 5% CO2. […] After incubation at 37° C. for about 1 hour, the absorbance of each well was read at 490 nm wavelength with a microplate reader. The OD490-T value of each administered well and the OD490-T0 value of the negative control well after background deduction were obtained by subtracting OD490-BLK from the absorbance reading value of each well.\n(§3) The relative survival rate of the cells in each administered well was calculated according to the following formula: […]"}, "Bel-7402 cells": {"system": "Bel-7402 cells", "experiment": "MTS cell viability assay", "assay_type": "cell-based, human", "conditions": "Bel-7402, monotreatment, 120 hours, dose-dependent", "procedure": "as §1, §2, §3"}, "SMMC-7721 cells": {"system": "SMMC-7721 cells", "experiment": "Colony forming assay (crystal violet)", "assay_type": "cell-based", "conditions": "SMMC-7721, Chidamide monotreatment 0.5 or 1 μM, 2-3 weeks", "procedure": "(§4) The SMMC-7721, Bel-7404 cell lines at the log phase stage were digested by trypsin, collected and counted, then seeded in a 6-well cell culture plate at the density of 500 cells/1.8 mL in each well, and cultured at 37° C. under 5% CO2. After cultured overnight, the cells were administered according to the grouping and the final concentration dosages shown in FIG. 2 (the final volume of each well after administration was 2 mL). The culture media and drugs were replaced every 3 days to keep the culture system and the dosage for each well stable.\nAfter cultured for 2-3 weeks, when there were visible cell colonies in the culture plate, the culture was terminated. The supernatants were discarded, and the plate was washed carefully with PBS twice. 1 mL of 75% ethanol solution was added to each well to fix the cells, and the fixative solution was discarded after 15 min. Then the cells were stained for 15 min by adding 1 mL of crystal violet solution to each well, and the staining solution was washed slowly with running water and air dried. The stained positive cell colonies in each well of the culture plate were photographed to compare their density."}, "Bel-7404 cells [4]": {"system": "Bel-7404 cells", "experiment": "Colony forming assay (crystal violet)", "assay_type": "cell-based, human", "conditions": "Bel-7404, Chidamide monotreatment 0.5 or 1 μM, 2-3 weeks", "procedure": "as §1, §4\nAfter cultured for 2-3 weeks, when there were visible cell colonies in the culture plate, the culture was terminated. The supernatants were discarded, and the plate was washed carefully with PBS twice. […]"}}, "note": "At least one compound was matched to its structure with a doubt left."}
{"smiles": "Nc1cc(F)ccc1NC(=O)c1ccc(CNC(=O)/C=C/c2cccnc2)cc1", "note": "[Chidamide]", "values": [{"measurement": "cell cycle compared with solvent control", "setting": "Bel-7404 cells [1]; Bel-7404, 0.5 μM Chidamide", "value": "almost not affected"}, {"measurement": "cells in G2/M phase and polyploid cells", "setting": "Bel-7404 cells [1]; Bel-7404, 1 μM Chidamide", "value": "slightly increased"}, {"measurement": "proportion of apoptotic cells", "setting": "Bel-7404 cells [2]", "value": "no significant difference from the solvent control group"}, {"measurement": "tumor volume of tumor-bearing nude mice", "setting": "Bel-7404 cell xenograft", "value": "inhibited to a certain extent"}, {"measurement": "inhibitory effect on tumor cell proliferation (survival rate)", "setting": "Bel-7404 cells [3]", "value": "a certain inhibitory effect on tumor cell proliferation"}, {"measurement": "inhibitory effect on tumor cell proliferation (survival rate)", "setting": "Bel-7402 cells", "value": "a certain inhibitory effect on tumor cell proliferation"}, {"measurement": "formation of cell colonies", "setting": "SMMC-7721 cells", "value": "no significant effect on the formation of cell colonies"}, {"measurement": "formation of cell colonies", "setting": "Bel-7404 cells [4]", "value": "affected somewhat on the formation of cell colonies"}]}
